PubChem BioAssay AID1053208 | Peter MacCallum Cancer Centre, 2014
This is one part, drawn at random, of about 17,000 reagents. In the full data, 788 (4.7%) are marked active. 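Calls rest on z-score classes alone; an extra cut-off of viability at most 70% of control was not applied to them.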 Entries without a mark were called inactive. Further read-outs or replicates are left out here.

Purpose: 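Synthetic lethal interactions between gene loss and doxorubicin in osteosarcoma cells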 (primary screen)
System: mouse osteosarcoma cells, early-passage culture from an engineered mouse model of fibroblastic bone tumour
Reagent: siRNA pool against mouse genes, 40 nM
Timing: about 120 h (48 h before drug, then 72 h with drug)
Challenge: doxorubicin 100 nM for 72 h, roughly 30-40% inhibitory dose
Measurement: 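Luminescent ATP signal taken as viability with or without 100 nM doxorubicin for 72 h; mean of two wells set against non-targeting siRNA and turned into robust z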
Scale: viability z-score with doxorubicin: higher = more viable cells under doxorubicin; viability z-score without drug: higher = more viable cells with knock-down alone; z-score of drug to no-drug ratio: higher = less drug sensitisation by knock-down
Active means: 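Called active if knock-down leaves viability unchanged without drug (z within -2 to 2) but lowers it with doxorubicin (z at or under -2)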

no.	target	combined z-score class	viability z-score with doxorubicin	viability z-score without drug	z-score of drug to no-drug ratio
1	Tnfrsf4 (tumor necrosis factor receptor superfamily, member 4)	no change with or without drug	0.11	0.17	0.11
2	Zfp42 (zinc finger protein 42)	no change with or without drug	-0.67	-1.35	0.34
3	Necab3 (N-terminal EF-hand calcium binding protein 3)	no change with or without drug	0.22	-0.84	1.01
4	2410004B18Rik (RIKEN cDNA 2410004B18 gene)	high cell count without drug only	1.8	2.19	0.45
5	Olfr908 (olfactory receptor 908)	no change with or without drug	0	0.17	0
6	Slc2a3	no change with or without drug	0	0.84	-0.45
7	Heatr5a (HEAT repeat containing 5A)	no change with or without drug	0.45	0.34	0.34
8	Klrb1a (killer cell lectin-like receptor subfamily B member 1A)	no change with or without drug	-1.35	-1.35	-0.45
9	Sytl5 (synaptotagmin-like 5)	no change with or without drug	-1.57	-0.17	-1.46
10	Itpkc (inositol 1,4,5-trisphosphate 3-kinase C)	no change with or without drug	-1.12	-0.84	-0.56
11	Pcdha9 (protocadherin alpha 9)	low cell count with doxorubicin only (active)	-2.36	-0.51	-2.14
12	Exosc8 (exosome component 8)	no change with or without drug	0.79	1.18	0.11
13	Adgre1 (adhesion G protein-coupled receptor E1)	no change with or without drug	0.67	1.18	0
14	Prkcq (protein kinase C, theta)	no change with or without drug	1.12	1.52	0.22
15	Gsto1 (glutathione S-transferase omega 1)	no change with or without drug	0.67	0.84	0.22
16	E130308A19Rik (RIKEN cDNA E130308A19 gene)	low cell count with doxorubicin only (active)	-2.14	-1.01	-1.57
17	L3mbtl2 (L3MBTL2 polycomb repressive complex 1 subunit)	no change with or without drug	-1.57	0.51	-1.8
18	Spz1 (spermatogenic leucine zipper 1)	no change with or without drug	0.67	0.67	0.34
19	Myo3b (myosin IIIB)	no change with or without drug	1.12	1.69	0.11
20	Ppp6r3 (protein phosphatase 6, regulatory subunit 3)	no change with or without drug	-0.9	0.17	-0.9
21	4930591A17Rik (RIKEN cDNA 4930591A17 gene)	no change with or without drug	0.22	-1.35	1.35
22	Mogat2 (monoacylglycerol O-acyltransferase 2)	no change with or without drug	0.22	0.17	0.22
23	Sohlh2	high cell count without drug only	1.12	3.2	-0.79
24	Slc12a8	high cell count with and without drug	2.25	2.87	0.45
25	Tmem144 (transmembrane protein 144)	no change with or without drug	0.45	-0.84	1.24
26	Kcna6	no change with or without drug	0.45	0.67	0.11
27	Spinkl (serine protease inhibitor, Kazal type-like)	high cell count with doxorubicin only	2.02	-0.17	2.36
28	Nanos2 (nanos C2HC-type zinc finger 2)	no change with or without drug	0.22	1.52	-0.67
29	Mrgprx2 (MAS-related GPR, member X2)	high cell count with doxorubicin only	2.59	0	2.81
30	Zhx2 (zinc fingers and homeoboxes 2)	high cell count with and without drug	2.36	2.7	0.67
31	Lax1 (lymphocyte transmembrane adaptor 1)	no change with or without drug	0	1.52	-0.9
32	Hoxd9 (homeobox D9)	no change with or without drug	0.45	-0.84	1.24
33	Pctp (phosphatidylcholine transfer protein)	high cell count with and without drug	2.92	3.2	0.79
34	Camk1d (calcium/calmodulin-dependent protein kinase ID)	no change with or without drug	-0.67	-0.51	-0.22
35	Uqcrfs1	no change with or without drug	-0.22	-1.69	1.12
36	Msantd3 (Myb/SANT-like DNA-binding domain containing 3)	no change with or without drug	-0.22	0.17	-0.22
37	Six1 (sine oculis-related homeobox 1)	no change with or without drug	-0.45	-0.17	-0.22
38	Or51ac3 (olfactory receptor family 51 subfamily AC member 3)	no change with or without drug	-1.35	-1.35	-0.45
39	Uck1 (uridine-cytidine kinase 1)	no change with or without drug	0	-0.67	0.56
40	Gtf2h5 (general transcription factor IIH, polypeptide 5)	low cell count with doxorubicin only (active)	-2.02	-0.51	-1.69
41	Pcp2 (Purkinje cell protein 2 (L7))	no change with or without drug	-0.45	0.34	-0.56
42	Cep57l1 (centrosomal protein 57-like 1)	no change with or without drug	0.22	1.35	-0.56
43	Anxa8 (annexin A8)	no change with or without drug	-0.9	0.84	-1.35
44	Anapc11 (anaphase promoting complex subunit 11)	no change with or without drug	-1.24	-0.84	-0.67
45	Kctd11 (potassium channel tetramerisation domain containing 11)	low cell count with doxorubicin only (active)	-2.02	0.34	-2.25
46	Cmas (cytidine monophospho-N-acetylneuraminic acid synthetase)	no change with or without drug	-1.12	-0.17	-1.01
47	Bet1l (Bet1 golgi vesicular membrane trafficking protein like)	low cell count without drug only	-1.46	-3.04	0.79
48	Ssxb1 (SSX member B1)	no change with or without drug	-1.12	0.51	-1.35
49	Smad3 (SMAD family member 3)	no change with or without drug	0	-0.51	0.45
50	Or56b35 (olfactory receptor family 56 subfamily B member 35)	no change with or without drug	-1.12	-1.18	-0.34
51	Ak1 (adenylate kinase 1)	no change with or without drug	-0.22	-0.17	0
52	A430090L17Rik (RIKEN cDNA A430090L17 gene)	no change with or without drug	-0.56	-1.85	0.9
53	Pudp (pseudouridine 5'-phosphatase)	no change with or without drug	0.67	0.84	0.22
54	Syk (spleen tyrosine kinase)	no change with or without drug	0.67	-0.84	1.46
55	Slc10a3	no change with or without drug	0.79	1.18	0.11
56	Emx1 (empty spiracles homeobox 1)	no change with or without drug	0.22	0.84	-0.22
57	Mex3d (mex3 RNA binding family member D)	no change with or without drug	1.57	0.34	1.46
58	Psg18 (pregnancy specific beta-1-glycoprotein 18)	no change with or without drug	1.35	0.51	1.12
59	Micu2 (mitochondrial calcium uptake 2)	no change with or without drug	0	0.67	-0.34
60	Eif3d (eukaryotic translation initiation factor 3, subunit D)	low cell count with and without drug	-2.36	-4.22	0.67
61	Coxfa4 (cytochrome c oxidase associated subunit FA4)	no change with or without drug	0.34	-1.85	1.91
62	Cobl (cordon-bleu WH2 repeat)	no change with or without drug	0	0	0.11
63	Gm20555 (predicted gene, 20555)	high cell count without drug only	1.01	2.02	-0.22
